Assay results as given in US6492404B1, “Thiazolylcinnamonitriles and pest controlling agents” (Nippon Soda Co., Ltd., priority 1998, dated 2002).
Some results were stated once for a whole list of compounds, not compound by compound. At least one structure is not confirmed: it was looked up by name or label, or the drawing left a doubt.

Tests used:
[1] = tested on: Pseudaletia separata Walker; assay: Effects on Pseudaletia separata Walker (corn leaf immersion, third instar larvae); format: in vivo; details: wettable powder diluted to 125 ppm, corn leaves immersed 30 seconds, 25° C., 65% RH, assessed 6 days after treatment
Procedure: Effects on Pseudaletia separata Walker
According to the instructions of the wettable powder described in the above Example 2, a wettable powder was diluted with water to make the compound concentration 125 ppm. Corn leaves were immersed in the solution for 30 seconds, air-dried and placed in a Petri dish containing 5 third instar larvae of Pseudaletia separata Walker. The dish was covered with a glass lid and placed in a thermostatic chamber of temperature of 25° C. and relative humidity of 65%. Mortality was assessed 6 days after treatment. Each test was replicated twice.

Aphis gossypii Glover = assay: Effects on Aphis gossypii Glover (spray over cucumber seedlings infested with hatched nymphs); format: in vivo; details: emulsifiable concentrate diluted to 8 ppm; sprayed over cucumber seedlings with hatched nymphs; 25° C., 65% RH; assessed 6 days after treatment

SMILES: N#CC(=C(OC(=O)c1ccccc1)c1ccccc1C(F)(F)F)c1nc(-c2c(F)cccc2F)cs1 (mixture of isomers) [5-3]
- mortality [1]: 100%
- mortality (Aphis gossypii Glover): 100%

SMILES: Cc1ccccc1C(OC(=O)C(C)(C)C)=C(C#N)c1nc(-c2c(F)cccc2F)cs1 (mixture of isomers) [5-4]
- mortality [1]: 100%
- mortality (Aphis gossypii Glover): 100%

SMILES: CC(=O)OC(=C(C#N)c1nc(-c2c(F)cccc2F)cs1)c1ccccc1C (mixture of isomers) [5-5]
- mortality [1]: 100%
- mortality (Aphis gossypii Glover): 100%

SMILES: Cc1ccccc1C(OC(=O)C(C)(C)c1ccc(Cl)cc1)=C(C#N)c1nc(-c2c(F)cccc2F)cs1 (mixture of isomers) [5-7]
- mortality [1]: 100%
- mortality (Aphis gossypii Glover): 100%

SMILES: CC(C)(C)C(=O)OC(=C(C#N)c1nc(-c2c(F)cccc2F)cs1)c1ccccc1Cl (mixture of isomers) [5-8]
- mortality [1]: 100%
- mortality (Aphis gossypii Glover): 100%

SMILES: CC(C)(C)C(=O)OC(=C(C#N)c1nc(-c2c(F)cccc2F)cs1)c1c(F)cccc1F (mixture of isomers) [5-9]
- mortality [1]: 100%

SMILES: CC(C)(C)C(=O)OC(=C(C#N)c1nc(-c2c(F)cccc2F)cs1)c1c(F)cccc1Cl (mixture of isomers) [5-10]
- mortality [1]: 100%
- mortality (Aphis gossypii Glover): 100%

SMILES: CC(C)(C)C(=O)OC(=C(C#N)c1nc(-c2c(F)cccc2F)cs1)c1c(F)cccc1C(F)(F)F (mixture of isomers) [5-11]
- mortality [1]: 100%

SMILES: CC(C)(C)C(=O)OC(=C(C#N)c1nc(-c2c(F)cccc2F)cs1)c1ccccc1Br (mixture of isomers) [5-12]
- mortality [1]: 100%
- mortality (Aphis gossypii Glover): 100%

SMILES: COc1ccccc1C(OC(=O)C(C)(C)C)=C(C#N)c1nc(-c2c(F)cccc2F)cs1 (mixture of isomers) [5-13]
- mortality [1]: 100%
- mortality (Aphis gossypii Glover): 100%

SMILES: CC(C)(C)C(=O)OC(=C(C#N)c1nc(-c2ccccc2F)cs1)c1ccccc1C(F)(F)F (mixture of isomers) [5-15]
- mortality [1]: 100%
- mortality (Aphis gossypii Glover): 100%

SMILES: CC(C)(C)C(=O)OC(=C(C#N)c1nc(-c2cccc(F)c2)cs1)c1ccccc1C(F)(F)F (mixture of isomers) [5-16]
- mortality [1]: 100%
- mortality (Aphis gossypii Glover): 100%

SMILES: CC(C)(C)C(=O)OC(=C(C#N)c1nc(-c2ccc(F)cc2)cs1)c1ccccc1C(F)(F)F (mixture of isomers) [5-17]
- mortality [1]: 100%

SMILES: CC(C)(C)C(=O)OC(=C(C#N)c1nc(-c2ccccc2Cl)cs1)c1ccccc1C(F)(F)F (mixture of isomers) [5-18]
- mortality [1]: 100%

SMILES: CC(C)(C)C(=O)OC(=C(C#N)c1nc(C(C)(C)C)cs1)c1ccccc1C(F)(F)F (mixture of isomers) [5-20]
- mortality [1]: 100%
- mortality (Aphis gossypii Glover): 100%

SMILES: CC(C)(C)C(=O)OC(=C(C#N)c1nc(C(C)(C)C)cs1)c1c(F)cccc1F (mixture of isomers) [5-21]
- mortality [1]: 100%

SMILES: CC(C)(C)C(=O)OC(=C(C#N)c1nc(C(C)(C)C)cs1)c1c(C(F)(F)F)ccc(F)c1F (mixture of isomers) [5-22]
- mortality [1]: 100%

SMILES: Cc1ccccc1C(OC(=O)c1ccc(Cl)cc1)=C(C#N)c1nc(C2CCCCC2)cs1 (mixture of isomers) [5-23]
- mortality [1]: 100%

SMILES: Cc1ccccc1C(OC(=O)C1CC1)=C(C#N)c1nc(-c2c(F)cccc2F)cs1 (mixture of isomers) [5-24]
- mortality [1]: 100%
- mortality (Aphis gossypii Glover): 100%

SMILES: Cc1ccccc1C(OC(=O)C(C)C)=C(C#N)c1nc(-c2c(F)cccc2F)cs1 (mixture of isomers) [5-25]
- mortality [1]: 100%
- mortality (Aphis gossypii Glover): 100%

SMILES: CCC(C)(C)C(=O)OC(=C(C#N)c1nc(-c2c(F)cccc2F)cs1)c1ccccc1C (mixture of isomers) [5-26]
- mortality [1]: 100%
- mortality (Aphis gossypii Glover): 100%

SMILES: CCCOC(=O)OC(=C(C#N)c1nc(-c2c(F)cccc2F)cs1)c1ccccc1C (mixture of isomers) [5-27]
- mortality [1]: 100%
- mortality (Aphis gossypii Glover): 100%

SMILES: Cc1ccccc1C(OC(=O)OCc1ccccc1)=C(C#N)c1nc(-c2c(F)cccc2F)cs1 (mixture of isomers) [5-28]
- mortality [1]: 100%
- mortality (Aphis gossypii Glover): 100%

SMILES: Cc1ccccc1C(OS(C)(=O)=O)=C(C#N)c1nc(-c2c(F)cccc2F)cs1 (mixture of isomers) [5-30]
- mortality [1]: 100%
- mortality (Aphis gossypii Glover): 100%

SMILES: CCCS(=O)(=O)OC(=C(C#N)c1nc(-c2c(F)cccc2F)cs1)c1ccccc1C (mixture of isomers) [5-31]
- mortality [1]: 100%
- mortality (Aphis gossypii Glover): 100%

SMILES: CC(C)(C)C(=O)OC(=C(C#N)c1nc(-c2c(F)cccc2F)cs1)c1ccccc1F (mixture of isomers) [5-33]
- mortality [1]: 100%
- mortality (Aphis gossypii Glover): 100%

SMILES: CC(C)(C)C(=O)OC(=C(C#N)c1nc(-c2c(F)cccc2F)cs1)c1ccccc1[N+](=O)[O-] (mixture of isomers) [5-34]
- mortality [1]: 100%

SMILES: Cc1c(F)cccc1C(OC(=O)C(C)(C)C)=C(C#N)c1nc(-c2c(F)cccc2F)cs1 (mixture of isomers) [5-38]
- mortality [1]: 100%
- mortality (Aphis gossypii Glover): 100%

SMILES: Cc1cc(F)ccc1C(OC(=O)C(C)(C)C)=C(C#N)c1nc(-c2c(F)cccc2F)cs1 (mixture of isomers) [5-39]
- mortality [1]: 100%
- mortality (Aphis gossypii Glover): 100%

SMILES: Cc1ccc(F)cc1C(OC(=O)C(C)(C)C)=C(C#N)c1nc(-c2c(F)cccc2F)cs1 (mixture of isomers) [5-40]
- mortality [1]: 100%
- mortality (Aphis gossypii Glover): 100%

SMILES: Cc1cccc(F)c1C(OC(=O)C(C)(C)C)=C(C#N)c1nc(-c2c(F)cccc2F)cs1 (mixture of isomers) [5-41]
- mortality [1]: 100%
- mortality (Aphis gossypii Glover): 100%

SMILES: Cc1ccccc1C(OC(=O)C(C)(C)C)=C(C#N)c1nc(-c2ccccc2Cl)cs1 (mixture of isomers) [5-44]
- mortality (Aphis gossypii Glover): 100%

SMILES: CC(C)(C)C(=O)OC(=C(C#N)c1nc(-c2ccccc2Cl)cs1)c1ccccc1Cl (mixture of isomers) [5-45]
- mortality (Aphis gossypii Glover): 100%

SMILES: CC(C)(C)C(=O)OC(=C(C#N)c1nc(-c2ccccc2C(F)(F)F)cs1)c1ccccc1C(F)(F)F (mixture of isomers) [5-48]
- mortality [1]: 100%

SMILES: Cc1ccccc1C(OC(=O)C(C)(C)C)=C(C#N)c1nc(-c2ccccc2C(F)(F)F)cs1 (mixture of isomers) [5-49]
- mortality [1]: 100%
- mortality (Aphis gossypii Glover): 100%

SMILES: CC(C)(C)C(=O)OC(=C(C#N)c1nc(-c2ccccc2C(F)(F)F)cs1)c1c(F)cccc1F (mixture of isomers) [5-50]
- mortality [1]: 100%

SMILES: CC(C)(C)C(=O)OC(=C(C#N)c1nc(-c2ccccc2C(F)(F)F)cs1)c1ccccc1Cl (mixture of isomers) [5-51]
- mortality [1]: 100%
- mortality (Aphis gossypii Glover): 100%

SMILES: Cc1ccccc1C(OC(=O)C(C)(C)C)=C(C#N)c1nc(-c2ccccc2F)cs1 (mixture of isomers) [5-52]
- mortality (Aphis gossypii Glover): 100%

SMILES: Cc1ccccc1C(OC(=O)c1ccccc1)=C(C#N)c1nc(-c2ccccc2F)cs1 (mixture of isomers) [5-54]
- mortality [1]: 100%
- mortality (Aphis gossypii Glover): 100%

SMILES: CC(C)(C)C(=O)OC(=C(C#N)c1nc(-c2ccccc2F)cs1)c1ccccc1Cl (mixture of isomers) [5-55]
- mortality (Aphis gossypii Glover): 100%

SMILES: Cc1ccccc1C(OC(=O)C(C)(C)C)=C(C#N)c1nc(-c2cccc(F)c2)cs1 (mixture of isomers) [5-56]
- mortality [1]: 100%
- mortality (Aphis gossypii Glover): 100%

SMILES: CC(=O)OC(=C(C#N)c1nc(-c2cccc(F)c2)cs1)c1ccccc1C (mixture of isomers) [5-57]
- mortality [1]: 100%
- mortality (Aphis gossypii Glover): 100%

SMILES: Cc1ccccc1C(OC(=O)c1ccccc1)=C(C#N)c1nc(-c2cccc(F)c2)cs1 (mixture of isomers) [5-58]
- mortality [1]: 100%
- mortality (Aphis gossypii Glover): 100%

SMILES: CC(C)(C)C(=O)OC(=C(C#N)c1nc(-c2cccc(F)c2)cs1)c1ccccc1Cl (mixture of isomers) [5-59]
- mortality [1]: 100%

SMILES: Cc1ccccc1-c1csc(C(C#N)=C(OC(=O)C(C)(C)C)c2ccccc2C(F)(F)F)n1 (mixture of isomers) [5-60]
- mortality [1]: 100%
- mortality (Aphis gossypii Glover): 100%

SMILES: Cc1ccccc1-c1csc(C(C#N)=C(OC(=O)C(C)(C)C)c2c(F)cccc2F)n1 (mixture of isomers) [5-66]
- mortality [1]: 100%

SMILES: Cc1ccccc1-c1csc(C(C#N)=C(OC(=O)C(C)(C)C)c2c(F)cccc2Cl)n1 (mixture of isomers) [5-67]
- mortality [1]: 100%

SMILES: Cc1cccc(-c2csc(C(C#N)=C(OC(=O)C(C)(C)C)c3ccccc3C)n2)c1 (mixture of isomers) [5-71]
- mortality (Aphis gossypii Glover): 100%

SMILES: Cc1ccccc1C(OC(=O)C(C)(C)C)=C(C#N)c1nc(-c2cc(F)ccc2F)cs1 (mixture of isomers) [5-76]
- mortality (Aphis gossypii Glover): 100%

SMILES: Cc1ccccc1C(OC(=O)C(C)(C)C)=C(C#N)c1nc(-c2cc(F)cc(F)c2)cs1 (mixture of isomers) [5-77]
- mortality (Aphis gossypii Glover): 100%

SMILES: CC(C)(C)C(=O)OC(=C(C#N)c1nc(-c2c(F)cccc2Cl)cs1)c1ccccc1C(F)(F)F (mixture of isomers) [5-79]
- mortality (Aphis gossypii Glover): 100%

SMILES: COc1ccc(F)cc1-c1csc(C(C#N)=C(OC(=O)C(C)(C)C)c2ccccc2C)n1 (mixture of isomers) [5-89]
- mortality (Aphis gossypii Glover): 100%

SMILES: COc1ccc(Cl)cc1-c1csc(C(C#N)=C(OC(=O)C(C)(C)C)c2ccccc2C)n1 (mixture of isomers) [5-90]
- mortality (Aphis gossypii Glover): 100%

SMILES: COc1c(F)cc(F)cc1-c1csc(C(C#N)=C(OC(=O)C(C)(C)C)c2ccccc2C)n1 (mixture of isomers) [5-91]
- mortality (Aphis gossypii Glover): 100%

SMILES: CC(=O)OC(=C(C#N)c1nc(C(C)(C)C)cs1)c1ccccc1C (mixture of isomers) [5-97]
- mortality [1]: 100%

SMILES: CC(=O)OC(=C(C#N)c1nc(-c2c(F)cccc2F)cs1)c1ccccc1C(F)(F)F (single isomer, unassigned) [5-2]
- mortality [1]: 100%
